Most of the targets with a hit are listed elsewhere, so they are rarer here than in the full data. The data scatter; read single values as rough. The entries are a selection whose mix differs from that of the whole data set.

The chains behind the UniProt entries cited, without tags or fusion partners. Where a name states a change or a piece, a line headed by the entry shows the natural chain unless it says otherwise.
UniProt Q12888: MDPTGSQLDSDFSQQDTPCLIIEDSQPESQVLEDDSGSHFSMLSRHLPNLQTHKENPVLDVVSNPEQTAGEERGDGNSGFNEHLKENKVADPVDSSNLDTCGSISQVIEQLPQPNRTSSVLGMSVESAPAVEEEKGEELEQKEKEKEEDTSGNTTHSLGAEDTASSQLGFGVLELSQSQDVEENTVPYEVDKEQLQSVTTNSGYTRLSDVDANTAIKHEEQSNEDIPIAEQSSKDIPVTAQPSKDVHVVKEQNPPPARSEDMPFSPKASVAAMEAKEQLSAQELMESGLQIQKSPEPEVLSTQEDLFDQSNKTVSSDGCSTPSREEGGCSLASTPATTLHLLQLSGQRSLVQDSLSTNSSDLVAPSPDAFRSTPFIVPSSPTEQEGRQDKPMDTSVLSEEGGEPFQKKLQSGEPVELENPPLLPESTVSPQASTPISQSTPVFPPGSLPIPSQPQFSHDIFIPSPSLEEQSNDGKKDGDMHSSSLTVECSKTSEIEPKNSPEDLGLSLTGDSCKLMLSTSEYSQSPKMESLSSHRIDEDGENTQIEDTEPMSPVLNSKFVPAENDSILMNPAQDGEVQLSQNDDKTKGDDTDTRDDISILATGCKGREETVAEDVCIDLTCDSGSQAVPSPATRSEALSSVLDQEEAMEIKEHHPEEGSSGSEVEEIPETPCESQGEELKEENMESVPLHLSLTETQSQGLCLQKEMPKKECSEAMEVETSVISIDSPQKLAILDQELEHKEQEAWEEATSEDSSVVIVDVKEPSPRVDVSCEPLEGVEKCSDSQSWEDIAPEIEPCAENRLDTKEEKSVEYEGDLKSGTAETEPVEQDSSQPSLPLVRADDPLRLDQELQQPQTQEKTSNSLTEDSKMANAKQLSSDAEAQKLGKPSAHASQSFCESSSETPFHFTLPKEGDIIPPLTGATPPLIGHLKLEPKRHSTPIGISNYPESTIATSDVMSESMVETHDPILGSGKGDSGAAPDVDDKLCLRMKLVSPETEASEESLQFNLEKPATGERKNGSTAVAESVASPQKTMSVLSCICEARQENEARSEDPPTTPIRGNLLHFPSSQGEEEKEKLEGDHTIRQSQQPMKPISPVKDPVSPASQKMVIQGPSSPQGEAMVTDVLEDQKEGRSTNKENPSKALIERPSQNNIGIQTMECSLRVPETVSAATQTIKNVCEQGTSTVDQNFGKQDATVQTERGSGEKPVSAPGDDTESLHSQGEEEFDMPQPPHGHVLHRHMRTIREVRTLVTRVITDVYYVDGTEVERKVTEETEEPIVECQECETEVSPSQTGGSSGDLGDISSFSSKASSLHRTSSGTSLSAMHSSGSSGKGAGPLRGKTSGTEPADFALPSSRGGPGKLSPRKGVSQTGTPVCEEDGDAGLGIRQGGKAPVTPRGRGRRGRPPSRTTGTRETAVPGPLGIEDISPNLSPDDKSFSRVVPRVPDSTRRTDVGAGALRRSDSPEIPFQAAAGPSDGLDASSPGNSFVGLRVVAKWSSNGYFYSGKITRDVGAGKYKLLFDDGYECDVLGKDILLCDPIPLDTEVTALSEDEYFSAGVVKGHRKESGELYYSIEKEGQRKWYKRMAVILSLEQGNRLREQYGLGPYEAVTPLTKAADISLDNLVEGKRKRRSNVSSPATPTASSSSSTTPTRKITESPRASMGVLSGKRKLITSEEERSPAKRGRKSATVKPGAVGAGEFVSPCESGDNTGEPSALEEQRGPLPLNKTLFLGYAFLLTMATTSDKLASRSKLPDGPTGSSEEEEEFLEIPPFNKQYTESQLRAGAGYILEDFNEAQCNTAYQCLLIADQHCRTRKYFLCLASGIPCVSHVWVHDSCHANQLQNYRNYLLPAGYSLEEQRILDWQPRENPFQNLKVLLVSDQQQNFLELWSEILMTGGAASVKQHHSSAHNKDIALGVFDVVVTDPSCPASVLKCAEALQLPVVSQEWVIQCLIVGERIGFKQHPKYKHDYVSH
UniProt Q13418: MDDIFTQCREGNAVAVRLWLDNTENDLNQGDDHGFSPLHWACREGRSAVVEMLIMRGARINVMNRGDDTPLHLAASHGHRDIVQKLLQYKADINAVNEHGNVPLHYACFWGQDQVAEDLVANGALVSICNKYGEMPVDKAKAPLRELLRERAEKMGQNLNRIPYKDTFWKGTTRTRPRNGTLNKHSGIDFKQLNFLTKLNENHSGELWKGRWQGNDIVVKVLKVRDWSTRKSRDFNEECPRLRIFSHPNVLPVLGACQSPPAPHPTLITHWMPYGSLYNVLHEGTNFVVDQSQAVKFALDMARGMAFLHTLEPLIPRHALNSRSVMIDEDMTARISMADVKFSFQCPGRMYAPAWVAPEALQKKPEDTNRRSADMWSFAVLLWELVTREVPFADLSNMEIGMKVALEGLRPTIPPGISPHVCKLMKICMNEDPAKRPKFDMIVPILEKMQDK
UniProt Q12948: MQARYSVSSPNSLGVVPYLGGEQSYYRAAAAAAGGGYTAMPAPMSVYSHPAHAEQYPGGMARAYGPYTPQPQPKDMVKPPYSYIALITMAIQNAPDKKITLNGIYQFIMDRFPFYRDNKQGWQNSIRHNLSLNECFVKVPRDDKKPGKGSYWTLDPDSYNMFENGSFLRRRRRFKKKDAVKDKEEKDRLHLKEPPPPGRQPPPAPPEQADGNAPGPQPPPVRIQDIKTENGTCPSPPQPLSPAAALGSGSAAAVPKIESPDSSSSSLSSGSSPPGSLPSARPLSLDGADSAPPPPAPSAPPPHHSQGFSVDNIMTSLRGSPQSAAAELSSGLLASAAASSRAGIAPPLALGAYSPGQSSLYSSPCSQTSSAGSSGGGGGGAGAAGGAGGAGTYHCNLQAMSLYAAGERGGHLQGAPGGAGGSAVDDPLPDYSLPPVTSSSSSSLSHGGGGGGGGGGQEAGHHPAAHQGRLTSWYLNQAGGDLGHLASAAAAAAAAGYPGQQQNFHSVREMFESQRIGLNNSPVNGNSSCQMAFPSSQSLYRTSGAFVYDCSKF
UniProt Q12986: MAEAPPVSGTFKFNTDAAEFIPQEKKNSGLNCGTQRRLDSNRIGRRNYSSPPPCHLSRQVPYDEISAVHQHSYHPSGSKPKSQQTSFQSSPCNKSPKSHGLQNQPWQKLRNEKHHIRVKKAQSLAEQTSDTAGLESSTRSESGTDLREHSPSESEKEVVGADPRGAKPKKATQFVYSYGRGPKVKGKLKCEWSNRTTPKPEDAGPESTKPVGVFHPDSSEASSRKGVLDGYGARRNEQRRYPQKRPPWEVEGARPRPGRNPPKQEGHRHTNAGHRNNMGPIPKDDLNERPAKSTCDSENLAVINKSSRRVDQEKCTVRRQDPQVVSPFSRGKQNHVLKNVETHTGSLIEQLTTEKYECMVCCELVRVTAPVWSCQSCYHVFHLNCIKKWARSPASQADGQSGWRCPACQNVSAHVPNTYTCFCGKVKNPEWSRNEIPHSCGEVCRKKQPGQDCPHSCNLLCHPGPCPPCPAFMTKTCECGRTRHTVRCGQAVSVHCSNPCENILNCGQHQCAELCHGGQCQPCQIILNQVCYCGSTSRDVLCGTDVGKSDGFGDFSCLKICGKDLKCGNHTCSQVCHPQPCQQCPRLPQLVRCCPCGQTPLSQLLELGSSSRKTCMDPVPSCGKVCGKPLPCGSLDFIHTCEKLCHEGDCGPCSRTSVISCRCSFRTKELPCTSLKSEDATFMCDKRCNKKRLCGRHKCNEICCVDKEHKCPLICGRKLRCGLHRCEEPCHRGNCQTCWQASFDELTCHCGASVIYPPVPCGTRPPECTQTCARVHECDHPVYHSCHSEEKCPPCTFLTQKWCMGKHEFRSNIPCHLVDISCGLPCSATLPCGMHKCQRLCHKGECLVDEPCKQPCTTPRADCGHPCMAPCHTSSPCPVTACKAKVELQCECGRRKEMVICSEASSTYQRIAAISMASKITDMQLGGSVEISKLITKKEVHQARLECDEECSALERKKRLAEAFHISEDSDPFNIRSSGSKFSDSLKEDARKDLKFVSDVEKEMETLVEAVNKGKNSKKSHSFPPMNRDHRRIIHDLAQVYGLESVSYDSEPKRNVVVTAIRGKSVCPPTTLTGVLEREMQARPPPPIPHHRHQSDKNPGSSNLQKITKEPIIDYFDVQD
UniProt Q08J23, whole entry, looked up: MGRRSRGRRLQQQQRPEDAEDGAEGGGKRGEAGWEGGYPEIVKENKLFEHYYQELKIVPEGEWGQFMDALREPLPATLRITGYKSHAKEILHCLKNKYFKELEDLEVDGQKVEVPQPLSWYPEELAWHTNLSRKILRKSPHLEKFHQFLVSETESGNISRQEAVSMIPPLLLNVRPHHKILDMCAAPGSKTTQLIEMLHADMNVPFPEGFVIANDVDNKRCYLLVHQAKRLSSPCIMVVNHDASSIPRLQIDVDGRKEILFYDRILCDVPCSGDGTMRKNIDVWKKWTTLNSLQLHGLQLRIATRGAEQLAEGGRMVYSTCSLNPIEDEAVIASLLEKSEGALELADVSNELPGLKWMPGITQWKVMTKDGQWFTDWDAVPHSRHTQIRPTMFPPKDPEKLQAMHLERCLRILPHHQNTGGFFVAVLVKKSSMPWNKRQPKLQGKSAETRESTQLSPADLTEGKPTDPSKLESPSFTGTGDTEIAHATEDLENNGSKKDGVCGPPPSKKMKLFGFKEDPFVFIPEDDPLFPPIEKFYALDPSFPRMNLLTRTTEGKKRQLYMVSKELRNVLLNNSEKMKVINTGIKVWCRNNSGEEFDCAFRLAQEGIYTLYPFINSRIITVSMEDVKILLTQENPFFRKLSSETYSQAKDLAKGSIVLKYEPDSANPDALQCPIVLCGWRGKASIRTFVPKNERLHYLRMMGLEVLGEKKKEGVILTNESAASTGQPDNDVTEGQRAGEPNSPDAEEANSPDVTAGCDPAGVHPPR
UniProt Q12834, whole entry: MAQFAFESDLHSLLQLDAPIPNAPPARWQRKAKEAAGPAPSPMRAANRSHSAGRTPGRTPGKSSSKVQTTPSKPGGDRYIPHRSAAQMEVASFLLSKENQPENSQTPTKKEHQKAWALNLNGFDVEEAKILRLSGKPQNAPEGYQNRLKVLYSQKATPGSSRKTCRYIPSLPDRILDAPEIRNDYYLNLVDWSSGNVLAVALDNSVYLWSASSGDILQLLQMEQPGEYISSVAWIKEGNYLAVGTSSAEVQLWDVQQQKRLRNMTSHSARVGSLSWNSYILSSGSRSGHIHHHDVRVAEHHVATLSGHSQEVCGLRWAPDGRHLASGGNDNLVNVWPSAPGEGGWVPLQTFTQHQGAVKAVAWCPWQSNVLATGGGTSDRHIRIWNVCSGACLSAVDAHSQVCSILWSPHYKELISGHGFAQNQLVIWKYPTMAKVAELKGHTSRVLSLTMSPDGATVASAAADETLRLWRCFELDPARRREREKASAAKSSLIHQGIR
UniProt Q13425: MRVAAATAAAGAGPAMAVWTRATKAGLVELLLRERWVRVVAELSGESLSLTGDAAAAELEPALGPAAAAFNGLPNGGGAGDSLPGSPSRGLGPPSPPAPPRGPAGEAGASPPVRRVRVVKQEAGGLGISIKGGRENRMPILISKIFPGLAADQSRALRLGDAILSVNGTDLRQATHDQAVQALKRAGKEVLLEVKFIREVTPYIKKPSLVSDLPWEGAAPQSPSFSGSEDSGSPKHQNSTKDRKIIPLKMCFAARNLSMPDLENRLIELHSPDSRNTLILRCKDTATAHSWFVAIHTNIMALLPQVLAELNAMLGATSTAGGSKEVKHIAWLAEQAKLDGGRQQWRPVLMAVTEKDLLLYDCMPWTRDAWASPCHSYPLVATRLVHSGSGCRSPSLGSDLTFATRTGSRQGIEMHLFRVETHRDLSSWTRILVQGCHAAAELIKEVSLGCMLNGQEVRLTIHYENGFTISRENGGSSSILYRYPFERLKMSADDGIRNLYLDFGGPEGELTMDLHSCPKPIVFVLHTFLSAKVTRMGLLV
UniProt Q09028, whole entry, looked up: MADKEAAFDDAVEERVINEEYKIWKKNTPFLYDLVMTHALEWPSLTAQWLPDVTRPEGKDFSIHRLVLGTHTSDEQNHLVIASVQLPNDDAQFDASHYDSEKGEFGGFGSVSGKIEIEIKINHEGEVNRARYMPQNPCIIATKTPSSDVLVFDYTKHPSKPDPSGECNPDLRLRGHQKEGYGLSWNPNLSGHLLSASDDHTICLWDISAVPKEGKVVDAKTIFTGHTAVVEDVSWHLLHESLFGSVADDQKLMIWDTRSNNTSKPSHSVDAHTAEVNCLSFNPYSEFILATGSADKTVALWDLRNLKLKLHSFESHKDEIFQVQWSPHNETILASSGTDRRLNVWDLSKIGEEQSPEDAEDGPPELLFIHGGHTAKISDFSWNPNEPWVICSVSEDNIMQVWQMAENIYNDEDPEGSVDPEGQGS

Compound in the test: COC(=O)/C=C/c1ccccc1 [methyl cinnamate]
Briefly: log2 ratio of iodoacetamide-alkyne labeling of the cysteine site, DMSO over compound (competition); higher = stronger covalent engagement of the cysteine by the compound, active = 1 or more. Conditions: 500 µM; treatment time 1 h; system: HEK293T cell lysate. Summed up:
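Reporter intensities give each cysteine's log2 competition ratio as the mean of control channels over the mean of compound channels. The samples were HEK293T lysate (2 mg/mL) given vehicle or electrophile (500 µM, 1 h, ambient temperature), then iodoacetamide alkyne (1 h), followed by click coupling to sCIP-TMT reagents, pooling, trypsin digestion overnight at 37 °C, streptavidin enrichment, acid elution, Orbitrap Eclipse LC-MS/MS with FAIMS and FragPipe quantification. Duplicate channels and three replicates were run, and cysteines quantified in only one replicate were discarded.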
With TP53BP1 C772 (UniProt Q12888), the “log2 ratio of iodoacetamide-alkyne labeling” value (“log2 ratio” below) was inactive: -0.0907. For the target ILK C239 (UniProt Q13418), the “log2 ratio” value was inactive: 0.231. The figure for TP53BP1 C1159 (UniProt Q12888) is inactive: -0.0303; for AHNAK C1833 (UniProt Q09666) it is inactive: 0.173. Turning to RPL18A C64 (UniProt Q02543), the “log2 ratio” value is inactive: 0.095.

Consider UniProt Q12948_C550, for which the “log2 ratio” value is inactive: 0.241.

Consider TP53BP1 C1178 (UniProt Q12888), for which the “log2 ratio” value was inactive: 0.356. The figure for TRAF2 C124 (UniProt Q12933) is inactive: 0.266; for NFX1 C1067 (UniProt Q12986) it is inactive: 0.125. As to PPAT C496 (UniProt Q06203), the “log2 ratio” value was inactive: 0.249.

Turning to UniProt Q03164_C990, the “log2 ratio” value is inactive: 0.25. The figure for TJP1 C1740 (UniProt Q07157) is inactive: 0.25; for NSUN2 C321 (UniProt Q08J23) it is inactive: -0.0977. With ILF3 C278 (UniProt Q12906), the “log2 ratio” value is inactive: 0.106. For CDC20 C364 (UniProt Q12834), the “log2 ratio” value is inactive: 0.221. For UBE3A C140 (UniProt Q05086) the value was inactive: -0.245. For the target UniProt Q02750_C277, the “log2 ratio” value is inactive: -0.0945. The figure for SNTB2 C374 (UniProt Q13425) is inactive: 0.117. For UniProt Q09028_C203 the value was inactive: 0.107; for PDE3B C767 (UniProt Q13370), inactive: -0.198. For GRSF1 C29 (UniProt Q12849) the value was inactive: 0.204. Turning to GOLGA2 C794 (UniProt Q08379), the “log2 ratio” value is inactive: 0.276.

The values above are taken from the supplement of paper PMC11006884.
